Laboratory results: the supplement of paper PMC10849652
Some of the results follow. Residues, ends and D or L forms follow the SMILES beside them. *: point of attachment. Cbz = O=C(OCc1ccccc1)*

By UniProt entry, the sequences of proteins in these tests, tags left out. Where a name states a change or a piece, a line headed by the entry shows the natural chain unless it says otherwise.
UniProt K7ELL7: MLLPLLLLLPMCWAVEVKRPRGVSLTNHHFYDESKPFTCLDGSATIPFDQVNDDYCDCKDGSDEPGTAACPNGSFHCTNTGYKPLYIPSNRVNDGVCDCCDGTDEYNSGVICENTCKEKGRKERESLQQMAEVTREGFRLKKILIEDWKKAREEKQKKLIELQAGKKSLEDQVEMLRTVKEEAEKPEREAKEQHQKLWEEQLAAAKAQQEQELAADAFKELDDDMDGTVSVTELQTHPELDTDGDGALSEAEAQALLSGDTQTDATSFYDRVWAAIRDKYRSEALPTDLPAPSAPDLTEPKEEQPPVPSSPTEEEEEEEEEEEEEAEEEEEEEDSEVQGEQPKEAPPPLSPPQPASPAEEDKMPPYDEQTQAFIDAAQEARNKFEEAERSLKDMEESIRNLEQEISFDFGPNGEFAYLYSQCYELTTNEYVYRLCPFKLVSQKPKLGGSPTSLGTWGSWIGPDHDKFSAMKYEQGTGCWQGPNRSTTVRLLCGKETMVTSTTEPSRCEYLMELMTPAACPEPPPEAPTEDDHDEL
UniProt Q15172: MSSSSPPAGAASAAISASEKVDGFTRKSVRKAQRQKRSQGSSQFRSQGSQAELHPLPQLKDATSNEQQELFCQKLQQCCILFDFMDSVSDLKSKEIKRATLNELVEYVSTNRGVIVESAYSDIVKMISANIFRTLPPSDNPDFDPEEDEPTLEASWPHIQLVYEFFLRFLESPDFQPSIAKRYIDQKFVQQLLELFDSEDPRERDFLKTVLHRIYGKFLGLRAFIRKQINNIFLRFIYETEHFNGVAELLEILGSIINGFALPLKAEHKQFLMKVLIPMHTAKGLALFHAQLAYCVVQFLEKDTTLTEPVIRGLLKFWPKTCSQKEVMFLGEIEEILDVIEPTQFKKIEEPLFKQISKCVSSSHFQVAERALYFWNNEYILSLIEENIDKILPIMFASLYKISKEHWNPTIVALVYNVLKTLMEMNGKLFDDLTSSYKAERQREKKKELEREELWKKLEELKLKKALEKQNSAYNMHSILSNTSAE
UniProt Q9NVM4: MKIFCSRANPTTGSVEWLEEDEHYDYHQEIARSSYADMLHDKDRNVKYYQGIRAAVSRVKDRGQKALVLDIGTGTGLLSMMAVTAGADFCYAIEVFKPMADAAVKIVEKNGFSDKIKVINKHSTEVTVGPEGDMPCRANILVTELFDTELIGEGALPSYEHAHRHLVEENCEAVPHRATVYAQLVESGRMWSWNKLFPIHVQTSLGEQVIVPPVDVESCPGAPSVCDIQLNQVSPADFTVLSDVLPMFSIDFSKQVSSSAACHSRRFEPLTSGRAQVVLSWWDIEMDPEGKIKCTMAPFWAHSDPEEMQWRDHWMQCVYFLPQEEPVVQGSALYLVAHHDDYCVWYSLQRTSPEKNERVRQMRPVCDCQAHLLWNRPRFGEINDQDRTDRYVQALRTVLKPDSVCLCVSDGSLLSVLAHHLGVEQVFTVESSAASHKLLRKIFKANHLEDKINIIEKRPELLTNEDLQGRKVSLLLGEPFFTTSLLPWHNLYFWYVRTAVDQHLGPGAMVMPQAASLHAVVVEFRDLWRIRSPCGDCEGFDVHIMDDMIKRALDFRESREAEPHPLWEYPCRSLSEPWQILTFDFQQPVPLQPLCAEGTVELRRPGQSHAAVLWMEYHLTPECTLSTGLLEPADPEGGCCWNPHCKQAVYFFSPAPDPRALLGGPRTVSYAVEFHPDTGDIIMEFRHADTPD
UniProt P60891: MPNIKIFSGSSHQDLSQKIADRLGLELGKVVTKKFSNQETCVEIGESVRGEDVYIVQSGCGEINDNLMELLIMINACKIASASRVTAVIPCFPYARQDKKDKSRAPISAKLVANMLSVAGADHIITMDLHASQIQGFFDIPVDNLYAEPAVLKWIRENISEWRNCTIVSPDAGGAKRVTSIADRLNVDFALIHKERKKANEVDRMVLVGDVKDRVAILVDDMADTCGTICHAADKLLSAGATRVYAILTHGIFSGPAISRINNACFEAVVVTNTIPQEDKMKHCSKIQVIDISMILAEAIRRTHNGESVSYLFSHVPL
UniProt O43395: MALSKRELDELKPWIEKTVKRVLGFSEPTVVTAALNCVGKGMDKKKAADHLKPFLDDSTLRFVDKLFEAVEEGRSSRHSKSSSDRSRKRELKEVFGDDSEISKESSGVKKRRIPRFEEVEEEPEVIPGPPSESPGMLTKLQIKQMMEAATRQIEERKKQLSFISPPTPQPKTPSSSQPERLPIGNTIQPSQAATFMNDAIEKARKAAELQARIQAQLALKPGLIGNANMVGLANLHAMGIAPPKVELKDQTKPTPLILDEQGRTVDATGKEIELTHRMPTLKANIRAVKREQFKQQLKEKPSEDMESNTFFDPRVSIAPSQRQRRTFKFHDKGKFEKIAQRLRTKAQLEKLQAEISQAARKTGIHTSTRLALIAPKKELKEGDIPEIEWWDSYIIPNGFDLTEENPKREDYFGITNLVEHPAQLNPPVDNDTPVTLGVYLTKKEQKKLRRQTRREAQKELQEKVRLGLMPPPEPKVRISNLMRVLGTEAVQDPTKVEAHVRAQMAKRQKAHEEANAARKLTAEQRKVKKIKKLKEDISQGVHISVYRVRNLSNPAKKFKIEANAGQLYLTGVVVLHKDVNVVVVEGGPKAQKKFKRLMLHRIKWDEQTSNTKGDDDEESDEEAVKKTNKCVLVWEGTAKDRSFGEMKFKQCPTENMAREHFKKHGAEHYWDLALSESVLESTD
UniProt Q13131: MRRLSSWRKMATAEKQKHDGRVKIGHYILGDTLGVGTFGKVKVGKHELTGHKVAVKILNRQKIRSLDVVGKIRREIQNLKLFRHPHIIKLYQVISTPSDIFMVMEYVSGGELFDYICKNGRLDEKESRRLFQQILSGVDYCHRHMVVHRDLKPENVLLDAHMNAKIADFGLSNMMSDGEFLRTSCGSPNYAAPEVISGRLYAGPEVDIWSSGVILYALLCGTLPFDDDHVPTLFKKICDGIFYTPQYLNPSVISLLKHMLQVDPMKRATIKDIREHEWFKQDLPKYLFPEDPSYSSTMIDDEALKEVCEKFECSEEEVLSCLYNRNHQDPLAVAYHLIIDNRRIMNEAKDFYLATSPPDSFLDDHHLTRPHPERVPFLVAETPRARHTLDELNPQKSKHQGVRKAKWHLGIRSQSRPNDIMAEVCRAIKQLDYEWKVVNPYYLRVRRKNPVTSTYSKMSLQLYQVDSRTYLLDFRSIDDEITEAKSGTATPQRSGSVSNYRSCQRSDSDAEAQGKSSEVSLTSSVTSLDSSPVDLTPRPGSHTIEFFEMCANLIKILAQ
UniProt Q05655: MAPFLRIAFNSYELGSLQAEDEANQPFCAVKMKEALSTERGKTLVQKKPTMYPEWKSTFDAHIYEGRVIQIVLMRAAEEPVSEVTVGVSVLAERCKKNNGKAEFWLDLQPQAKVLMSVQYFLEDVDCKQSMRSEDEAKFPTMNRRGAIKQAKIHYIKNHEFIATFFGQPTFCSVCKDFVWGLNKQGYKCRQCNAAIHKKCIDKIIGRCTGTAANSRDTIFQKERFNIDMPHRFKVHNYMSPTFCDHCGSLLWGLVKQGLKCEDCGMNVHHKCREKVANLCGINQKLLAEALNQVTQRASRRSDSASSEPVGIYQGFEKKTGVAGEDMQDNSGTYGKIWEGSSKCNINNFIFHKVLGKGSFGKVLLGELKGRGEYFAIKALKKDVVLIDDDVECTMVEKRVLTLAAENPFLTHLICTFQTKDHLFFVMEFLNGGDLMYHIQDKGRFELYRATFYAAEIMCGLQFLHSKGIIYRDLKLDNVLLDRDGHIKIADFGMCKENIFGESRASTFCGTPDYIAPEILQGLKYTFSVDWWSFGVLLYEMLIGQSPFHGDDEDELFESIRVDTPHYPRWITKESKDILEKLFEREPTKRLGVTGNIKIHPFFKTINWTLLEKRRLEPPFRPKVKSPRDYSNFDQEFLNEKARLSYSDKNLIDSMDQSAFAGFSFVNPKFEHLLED
UniProt Q16537, whole entry, looked up: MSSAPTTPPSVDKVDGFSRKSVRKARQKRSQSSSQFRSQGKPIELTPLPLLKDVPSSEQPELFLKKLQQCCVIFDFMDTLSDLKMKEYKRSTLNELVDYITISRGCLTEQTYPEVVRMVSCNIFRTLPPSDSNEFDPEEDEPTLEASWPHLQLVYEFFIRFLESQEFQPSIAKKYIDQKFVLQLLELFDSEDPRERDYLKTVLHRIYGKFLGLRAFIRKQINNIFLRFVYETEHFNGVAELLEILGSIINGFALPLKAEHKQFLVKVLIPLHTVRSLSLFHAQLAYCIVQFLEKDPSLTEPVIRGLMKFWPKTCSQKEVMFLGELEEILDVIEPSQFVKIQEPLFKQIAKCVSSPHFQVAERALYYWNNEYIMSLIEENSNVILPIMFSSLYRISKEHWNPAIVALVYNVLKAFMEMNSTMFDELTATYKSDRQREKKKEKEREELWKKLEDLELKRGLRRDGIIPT
UniProt Q13162: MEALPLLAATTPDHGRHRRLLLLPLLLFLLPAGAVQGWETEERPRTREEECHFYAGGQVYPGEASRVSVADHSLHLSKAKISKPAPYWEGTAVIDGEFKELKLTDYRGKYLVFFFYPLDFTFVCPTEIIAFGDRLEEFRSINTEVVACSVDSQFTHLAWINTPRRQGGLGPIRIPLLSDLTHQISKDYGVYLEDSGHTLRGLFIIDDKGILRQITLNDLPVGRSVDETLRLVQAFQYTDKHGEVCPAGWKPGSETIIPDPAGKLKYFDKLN
UniProt Q96A00: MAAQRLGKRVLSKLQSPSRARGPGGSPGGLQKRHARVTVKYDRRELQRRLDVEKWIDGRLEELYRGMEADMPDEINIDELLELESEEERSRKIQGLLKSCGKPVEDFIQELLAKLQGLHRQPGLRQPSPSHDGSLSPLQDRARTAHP
UniProt P31323, whole entry, looked up: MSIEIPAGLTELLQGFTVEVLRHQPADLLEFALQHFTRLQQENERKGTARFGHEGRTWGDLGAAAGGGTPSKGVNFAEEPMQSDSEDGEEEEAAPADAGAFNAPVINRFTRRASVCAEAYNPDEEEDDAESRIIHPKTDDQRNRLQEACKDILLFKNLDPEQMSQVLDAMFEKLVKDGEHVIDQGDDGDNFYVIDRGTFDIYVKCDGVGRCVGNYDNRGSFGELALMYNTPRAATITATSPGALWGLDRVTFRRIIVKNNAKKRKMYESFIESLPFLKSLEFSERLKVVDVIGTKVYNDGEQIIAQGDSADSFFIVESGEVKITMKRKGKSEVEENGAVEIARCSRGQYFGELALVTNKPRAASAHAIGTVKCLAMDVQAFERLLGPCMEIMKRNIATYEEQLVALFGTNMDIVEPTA
UniProt P31321, whole entry, looked up: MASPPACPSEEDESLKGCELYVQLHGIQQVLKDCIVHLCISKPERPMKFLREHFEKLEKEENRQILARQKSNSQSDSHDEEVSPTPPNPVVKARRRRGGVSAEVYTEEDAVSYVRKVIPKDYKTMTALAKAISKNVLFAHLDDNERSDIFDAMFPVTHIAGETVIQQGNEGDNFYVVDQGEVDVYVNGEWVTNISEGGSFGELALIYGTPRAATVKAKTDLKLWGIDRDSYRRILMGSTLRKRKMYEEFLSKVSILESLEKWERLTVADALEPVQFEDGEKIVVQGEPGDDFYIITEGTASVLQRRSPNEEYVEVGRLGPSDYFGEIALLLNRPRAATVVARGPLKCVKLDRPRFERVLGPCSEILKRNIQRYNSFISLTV
UniProt Q8TAP8: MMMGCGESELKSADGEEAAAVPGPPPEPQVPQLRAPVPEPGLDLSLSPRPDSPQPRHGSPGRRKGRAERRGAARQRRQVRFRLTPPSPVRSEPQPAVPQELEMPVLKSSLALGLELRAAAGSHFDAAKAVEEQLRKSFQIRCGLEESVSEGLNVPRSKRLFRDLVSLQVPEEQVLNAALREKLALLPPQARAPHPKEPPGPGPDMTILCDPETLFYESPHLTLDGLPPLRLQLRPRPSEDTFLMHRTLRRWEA

Legend:
Assay in all cases: log2 fold change, soluble protein after heating vs DMSO (PISA); higher = thermal stabilisation; K562 cells, 10 uM, 30 min; active = over 0.2 and 3.5 SD of the protein, either way, in both replicates (recomputed)
[1] = compound: C#Cc1cccc(Nc2ncnc3cc(OCCOC)c(OCCOC)cc23)c1 [erlotinib]
Summary of the method: (§1)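 K562 cells (2×10^6 cells/mL) were treated with 10 μM compound for 30 min, and aliquots were heated for 3 min over 48°C-58°C. Pooled aliquots were extracted in PBS with 0.5% NP-40 at 4°C, and the supernatant after 21,000xg for 90 min was measured by TMTpro 16plex LC-MS/MS with channel sums equalised. Reported thermal stability, relative to control samples and from duplicates, is a log2 fold change.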

[2] = compound: C/C(=N\NC(=O)C1=CC(=CC=C1)S(=O)(=O)N2CCOCC2)/C3=C(C=CC(=C3)Cl)O
Summary of the method: as §1

[3] = compound: C1=CC(=C(C=C1Cl)C2=NC3=NC=CN=C3C(=N2)NC4=CC=NC=C4)F
Summary of the method: as §1

[4] = compound: C1=CC(=CC=C1C2=NC3=C(N2)C=C(C=C3)C(=O)N)OC4=CC=C(C=C4)Cl
Summary of the method: as §1

[5] = compound: C1=CC2=C(C=CC(=C2)/C=C\3/C(=O)NC(=NCC4=CC=CS4)S3)N=C1
Summary of the method: as §1

[6] = compound: C1=CC2=NC=CN=C2C=C1/C=C/3\C(=O)NC(=O)S3
Summary of the method: as §1

[7] = compound: C1=CC=C(C=C1)C2=NC(=C(N2)C3=CC=NC=C3)C4=CC(=C(C=C4)Cl)O
Summary of the method: as §1

[8] = compound: C1=CC=C2C(=C1)C3=NNC4=CC=CC(=C43)C2=O
Summary of the method: as §1

[9] = compound: C1CCN(C1)C(=O)NC2=CC=CC(=C2)NC3=NC=C(C(=N3)NCCC4=CN=CN4)Br
Summary of the method: as §1

[10] = compound: C1CN(CCC1(CC2=CC=C(C=C2)Cl)N)C3=NC=NC4=C3C=CN4
Summary of the method: as §1

[11] = compound: C1COCCN1CCN2C3=CC=CC=C3N=C2NC(=O)C4=CC(=CC=C4)[N+](=O)[O-] [IRAK-1-4 Inhibitor I]
Summary of the method: as §1

[12] = compound: C=CC(=O)N1CCC[C@@H](n2nc(-c3ccc(Oc4ccccc4)cc3)c3c(N)ncnc32)C1 [ibrutinib]
Summary of the method: as §1

[13] = compound: CC(=O)c1cnc2ccc(-c3cc(Cl)c(O)c(Cl)c3)nc2c1N[C@H]1CC[C@H](CN(C)C)CC1
Summary of the method: as §1

[14] = compound: CC(C)(C)Cn1c(N)nc2ccc(-c3[nH]c(C(C)(C)C)nc3-c3ccc(F)cc3)nc21 [ralimetinib]
Summary of the method: as §1

[15] = compound: CC(C)(O)CC(=O)NCCn1ccc2ncnc(Nc3ccc(Oc4cccc(C(F)(F)F)c4)c(Cl)c3)c21
Summary of the method: as §1

[16] = compound: CC(C)C1=C2N=C(C=C(N2N=C1)NCC3=CC=CC=C3)NCCCCCCN
Summary of the method: as §1

[17] = compound: CC(C)C[C@@H](C=O)NC(=O)[C@H](CC(C)C)NC(=O)[C@H](CC(C)C)NC(=O)OCc1ccccc1
Summary of the method: as §1

[18] = compound: CC(C)N(C[C@H]1O[C@@H](n2cnc3c(N)ncnc32)[C@H](O)[C@@H]1O)[C@H]1C[C@@H](CCc2nc3cc(C(C)(C)C)ccc3[nH]2)C1 [pinometostat]
Summary of the method: as §1

[19] = compound: CC1=C(C(CC(=O)N1)C2=CC=C(C=C2)C(F)(F)F)C(=O)NC3=C(C=C4C(=C3)C=NN4)F
Summary of the method: as §1

[20] = compound: CC1=C(C2=C(C=C1)C(=O)C3=CC=CC=C3N2CCCN)C
Summary of the method: as §1

Target	log2 fold change [1]	log2 fold change [2]	log2 fold change [3]	log2 fold change [4]	log2 fold change [5]	log2 fold change [6]	log2 fold change [7]	log2 fold change [8]	log2 fold change [9]	log2 fold change [10]	log2 fold change [11]	log2 fold change [12]	log2 fold change [13]	log2 fold change [14]	log2 fold change [15]	log2 fold change [16]	log2 fold change [17]	log2 fold change [18]	log2 fold change [19]	log2 fold change [20]
PRKCSH (UniProt K7ELL7)	inactive: -0.033	inactive: -0.013	inactive: -0.063	inactive: 0.212	inactive: 0.007	inactive: 0.058	inactive: -0.114	inactive: 0.003	inactive: -0.175	inactive: -0.064	inactive: 0.038	inactive: -0.02	inactive: -0.093	inactive: 0	inactive: 0.001	inactive: -0.04	inactive: -0.011	inactive: -0.021	inactive: 0.14	inactive: 0.011
PPP2R5A (UniProt Q15172)	inactive: 0.011	inactive: 0.098	inactive: 0.009	inactive: -0.022	inactive: 0.018	inactive: 0.055	inactive: 0.078	inactive: 0.017	inactive: 0	inactive: -0.015	inactive: 0.005	inactive: -0.024	inactive: 0.004	inactive: 0.066	inactive: -0.16	inactive: -0.193	inactive: 0.023	inactive: 0.025	–	inactive: 0.071
PRMT7 (UniProt Q9NVM4)	inactive: 0.093	inactive: 0.132	inactive: 0.064	inactive: -0.017	inactive: 0.142	inactive: 0.018	inactive: -0.109	inactive: -0.039	inactive: 0.031	inactive: -0.031	inactive: 0.044	inactive: -0.061	inactive: -0.004	inactive: -0.005	inactive: 0.048	active: -0.329	inactive: -0.033	inactive: 0.074	–	inactive: -0.065
PRPS1 (UniProt P60891)	inactive: -0.025	inactive: 0.002	inactive: 0.001	inactive: 0.008	inactive: -0.024	inactive: -0.047	inactive: -0.062	inactive: 0.023	inactive: -0.01	inactive: -0.024	inactive: 0.051	inactive: 0.014	inactive: 0.012	inactive: -0.056	inactive: -0.004	inactive: 0.104	inactive: -0.006	inactive: -0.044	inactive: 0.01	inactive: 0.087
PRPF3 (UniProt O43395)	inactive: 0.06	inactive: 0.144	inactive: 0.069	inactive: -0.02	inactive: 0.015	inactive: 0.019	inactive: 0.057	inactive: 0	inactive: -0.07	inactive: 0.053	inactive: -0.018	inactive: -0.038	inactive: -0.179	inactive: -0.008	inactive: -0.055	inactive: -0.205	inactive: -0.001	inactive: 0	–	inactive: -0.2
PRKAA1 isoform 2 (UniProt Q13131)	inactive: 0	inactive: 0.026	inactive: 0.084	inactive: 0.045	inactive: 0.018	inactive: 0.013	inactive: 0.012	inactive: -0.051	inactive: -0.034	inactive: 0.012	inactive: 0.046	inactive: -0.006	active: -0.343	inactive: -0.003	inactive: -0.009	inactive: -0.025	inactive: -0.014	inactive: -0.014	–	inactive: 0.019
PRKCG (UniProt P05129)	inactive: -0.04	inactive: 0.058	inactive: 0.052	inactive: 0.04	inactive: 0.144	inactive: -0.033	inactive: 0.074	inactive: 0.023	inactive: -0.052	inactive: -0.138	inactive: 0.025	inactive: -0.024	inactive: -0.351	inactive: 0.049	inactive: -0.099	inactive: -0.097	inactive: 0.055	inactive: 0.054	–	inactive: 0.028
PPP4R3B (UniProt Q5MIZ7)	inactive: 0.022	inactive: 0.023	inactive: 0.013	inactive: -0.023	inactive: 0.083	inactive: 0.028	inactive: -0.023	inactive: -0.019	inactive: -0.003	inactive: -0.027	inactive: 0.027	inactive: -0.024	inactive: -0.018	inactive: -0.014	inactive: 0.095	inactive: -0.069	inactive: -0.023	inactive: -0.021	–	inactive: -0.069
PRKCD (UniProt Q05655)	inactive: -0.01	inactive: 0.004	inactive: 0.028	inactive: 0.065	inactive: 0.016	inactive: 0.044	inactive: -0.006	inactive: -0.008	inactive: 0.009	inactive: -0.001	inactive: 0.043	inactive: -0.027	active: -0.685	inactive: -0.041	inactive: -0.013	inactive: -0.004	inactive: 0.022	inactive: 0.017	–	inactive: 0
PPP2R5E (UniProt Q16537)	inactive: 0.017	inactive: 0.096	inactive: 0.005	inactive: -0.061	inactive: -0.007	inactive: 0	inactive: 0.075	inactive: 0.054	inactive: -0.013	inactive: 0.056	inactive: -0.01	inactive: -0.001	inactive: -0.033	inactive: -0.029	inactive: -0.046	inactive: -0.144	inactive: 0.019	inactive: 0.015	–	inactive: 0.136
PRDX4 (UniProt Q13162)	inactive: 0.013	inactive: -0.003	inactive: 0.006	inactive: -0.022	inactive: 0.035	inactive: 0.068	inactive: -0.047	inactive: 0.001	inactive: 0.044	inactive: 0.06	inactive: 0.009	inactive: -0.005	inactive: -0.047	inactive: -0.091	inactive: 0.025	inactive: 0.029	inactive: -0.02	inactive: -0.045	inactive: 0.022	inactive: -0.003
PPP1R14A (UniProt Q96A00)	inactive: 0.047	inactive: 0.004	inactive: 0.004	inactive: 0.063	inactive: -0.036	inactive: -0.001	active: 0.341	inactive: 0.004	inactive: 0.016	inactive: 0.015	inactive: 0.041	inactive: -0.01	inactive: 0.036	inactive: 0.218	inactive: -0.009	inactive: 0.126	inactive: -0.122	inactive: -0.065	–	inactive: -0.073
PPP3CB isoform 4 (UniProt P16298)	inactive: 0.034	inactive: -0.03	inactive: 0.024	inactive: 0.013	inactive: 0.069	inactive: 0.05	inactive: -0.015	inactive: 0.034	inactive: 0.002	inactive: -0.008	inactive: 0.004	inactive: -0.047	inactive: -0.05	inactive: 0.019	inactive: -0.054	inactive: -0.084	inactive: 0.014	inactive: 0.028	inactive: 0.046	inactive: -0.018
PRKAR2B (UniProt P31323)	inactive: -0.017	inactive: 0.066	inactive: -0.082	inactive: 0.16	inactive: -0.004	inactive: 0.012	inactive: -0.058	inactive: -0.083	active: -0.449	active: -0.636	inactive: -0.038	inactive: -0.011	active: -0.833	inactive: -0.039	inactive: -0.007	inactive: -0.068	inactive: 0.044	inactive: 0.108	–	inactive: 0.022
PRKAR1B (UniProt P31321)	inactive: -0.027	inactive: -0.056	inactive: -0.036	inactive: 0.013	inactive: 0.205	inactive: 0.282	inactive: -0.006	inactive: 0.102	inactive: 0.086	inactive: -0.077	inactive: 0.005	inactive: 0.004	inactive: -0.112	inactive: 0.143	inactive: -0.013	inactive: -0.11	inactive: 0.007	inactive: 0.105	–	inactive: -0.104
PPP1R35 (UniProt Q8TAP8)	inactive: 0.137	inactive: -0.064	inactive: -0.038	inactive: 0.029	inactive: 0.01	inactive: 0.034	inactive: 0.021	inactive: -0.031	inactive: 0.009	inactive: 0.001	inactive: -0.055	inactive: -0.057	inactive: -0.069	inactive: -0.007	inactive: -0.026	inactive: -0.049	inactive: 0.036	inactive: -0.021	–	inactive: -0.049
PRG4 (UniProt Q92954)	inactive: 0.002	inactive: -0.109	inactive: 0.011	inactive: -0.085	inactive: 0.15	inactive: 0.024	inactive: -0.139	inactive: -0.171	inactive: -0.143	inactive: 0.031	inactive: -0.072	inactive: -0.005	inactive: 0	inactive: 0.011	inactive: 0.059	inactive: 0.29	inactive: 0.054	inactive: -0.068	–	inactive: -0.127

Laid out differently: results already given.
Target | log2 fold change [1] | log2 fold change [2] | log2 fold change [3] | log2 fold change [4] | log2 fold change [5] | log2 fold change [6] | log2 fold change [7] | log2 fold change [8] | log2 fold change [9] | log2 fold change [10] | log2 fold change [11] | log2 fold change [12] | log2 fold change [13] | log2 fold change [14] | log2 fold change [15] | log2 fold change [16] | log2 fold change [17] | log2 fold change [18] | log2 fold change [19] | log2 fold change [20]
PRKCSH (UniProt K7ELL7) | inactive: -0.033 | inactive: -0.013 | inactive: -0.063 | inactive: 0.212 | inactive: 0.007 | inactive: 0.058 | inactive: -0.114 | inactive: 0.003 | inactive: -0.175 | inactive: -0.064 | inactive: 0.038 | inactive: -0.02 | inactive: -0.093 | inactive: 0 | inactive: 0.001 | inactive: -0.04 | inactive: -0.011 | inactive: -0.021 | inactive: 0.14 | inactive: 0.011
PPP2R5A (UniProt Q15172) | inactive: 0.011 | inactive: 0.098 | inactive: 0.009 | inactive: -0.022 | inactive: 0.018 | inactive: 0.055 | inactive: 0.078 | inactive: 0.017 | inactive: 0 | inactive: -0.015 | inactive: 0.005 | inactive: -0.024 | inactive: 0.004 | inactive: 0.066 | inactive: -0.16 | inactive: -0.193 | inactive: 0.023 | inactive: 0.025 | – | inactive: 0.071
